Results published in PubChem BioAssay AID2685 (National Center for Advancing Translational Sciences (NCATS), 2010).
Hit rate of the full screen: of about 320,000 compounds, about 2,100 (0.66%) were called active. Inconclusive means that the source gave no clear call. Such entries were picked first, then a sample of the others. Calls follow the shape of the dose curve; as a rule, active = well fitted inhibition curve with a large enough effect in the signal ratio, with a control signal flat (not every such curve was filed as active); inconclusive = small, poorly fitted or top-dose-only effect, or effect the other way, or a change in a side signal; inactive = flat fitted curve, though single readings scatter; the % refers to the signal ratio. Potencies of inconclusive entries are doubtful fits and often do not repeat.

test: qHTS Assay for Lipid Storage Modulators in Drosophila S3 Cells; conditions: BODIPY lipid droplet fluorescence, 18-24 h, cells fed with added oleic acid; lipid storage change, negative = inhibition: at 46.1 µM (top of the series) unless noted
In short: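 Drosophila S3 cells got compounds at several concentrations plus oleic acid (400 uM solution). Laser-scanning cytometry with 488 nm excitation read lipid droplets at 500-530 nm and cells at 575-640 nm. Percent activity was relative to 20 uM Triacsin C.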
% is scaled to controls: 0 for no effect and ±100 for the full control effect; potency is read from the fitted curve at half-maximal effect.

Compound | lipid storage change, negative = inhibition | Potency
CC1(C)CC(=O)C(C=NCCc2ccccn2)=C(O)C1 | inconclusive: -11.2% | 
O=C(Nc1cccc(S(=O)(=O)N2CCCCC2)c1)c1ccco1 |  | inconclusive: 6.51 µM [activator, single point]
CC(=O)Nc1ccc2nc(CN3CCN(Cc4ccc(F)cc4)C(CCO)C3)ccc2c1 (stereo not drawn) | inconclusive: 6.87% | 
CC(NC(=O)c1ccccc1NC(=O)CSc1nnnn1C)c1ccccc1 (stereo not drawn) | inconclusive: 0.59% | 
CCC(C)(C)NC(=O)C(c1ccc(O)cc1)N(C(=O)Cn1nnc2ccccc21)c1ccc(NC(C)=O)cc1 (stereo not drawn) | inconclusive: -14.1% | 
Cc1ccc(C(=O)COC(=O)c2ccncc2)cc1[N+](=O)[O-] |  | inconclusive: 7.31 µM [activator, full curve, poor fit]
O=C(NCCN1CCCCC1)Nc1cccc(F)c1 | inactive: 15.7% | 
NC(=O)c1ccccc1N/C=C/C(=O)c1ccc(Cl)cc1 |  | inconclusive: 23.1 µM [activator, single point]
Cc1ccc(C(=O)NC(=S)N2CCCCCC2)cc1 | inconclusive: 21.9% | 
COc1cc2cc(CCCOC(=O)c3ccc(Br)cc3)oc(=O)c2cc1OC |  | inconclusive: 0.58 µM [activator, partial curve]
CN(C)c1ccc(NC(=O)CN2CCc3ccccc3C2)cc1 | inconclusive: -1.78% | 
Cc1cc(C)c(NC(=O)CS(=O)CC(=O)Nc2cccnc2)c(C)c1 (stereo not drawn) |  | inconclusive: 0.13 µM [activator, full curve, poor fit]
COc1ccc(NC(=O)c2cccc(C(=O)Nc3ccc(OC)cc3)n2)cc1 | inconclusive: -47.8% | 
Cc1cc2cccc(C)c2nc1SCC(=O)NNC(=O)c1ccco1 | inconclusive: -13.7% | 
Cc1ccc(CN(c2ccc(C(=O)N3CCCC3)cc2)S(C)(=O)=O)cc1 | inconclusive: -4.44% | 
Cc1cccc(NC(=O)c2ccc(NCCc3ccccc3)c([N+](=O)[O-])c2)c1 |  | active: 16.4 µM
CC1(C2(O)CC(c3ccccc3)ON2)CCCCC1 (stereo not drawn) |  | inconclusive: 4.11 µM [cytotoxic, single point]
CC1CC2(C)Oc3ccccc3C3OCC1(CO)C(C)C32 (stereo not drawn) |  | inconclusive: 29.1 µM [cytotoxic, single point]
CC(C(=O)N1CCc2ccccc21)N1CCN(S(=O)(=O)c2cccs2)CC1 (stereo not drawn) |  | inconclusive: 29.1 µM [falling, single point]
C/C(=N\NC(=O)c1nnn(-c2nonc2N)c1CN1CCC(C)CC1)c1cccc(Br)c1 |  | inconclusive: 0.651 µM [activator, single point]
O=C(NC1CCCc2ccccc21)N[C@@H](Cc1ccccc1)C(=O)O (stereo partly drawn) | inconclusive: 162% | 
Cc1ccc(C)c(NC(=S)N2CCN(S(C)(=O)=O)CC2)c1 | inconclusive: 3.98% | 
COc1ccc(CCNc2oc(Cc3ccccc3)nc2C#N)cc1OC |  | inconclusive: 0.58 µM [activator, single point]
O=S(=O)([N-]c1nc2ccccc2nc1-[n+]1ccc(Cc2ccccc2)cc1)c1ccc(Br)s1 |  | inconclusive: 0.13 µM [falling, full curve, poor fit]
O=C(COc1ccccc1)NNC(=O)c1cccs1 | inconclusive: -4.26% | 
Cc1ccc(S(=O)(=O)NCCCCCC(N)=O)cc1 |  | inconclusive: 1.03 µM [falling, full curve]

Reformatted: results already given
Compound	lipid storage change, negative = inhibition	Potency
CC1(C)CC(=O)C(C=NCCc2ccccn2)=C(O)C1	inconclusive: -11.2%	
O=C(Nc1cccc(S(=O)(=O)N2CCCCC2)c1)c1ccco1		inconclusive: 6.51 µM [activator, single point]
CC(=O)Nc1ccc2nc(CN3CCN(Cc4ccc(F)cc4)C(CCO)C3)ccc2c1 (stereo not drawn)	inconclusive: 6.87%	

(continued)

Compound | lipid storage change, negative = inhibition | Potency
Cc1nc2ncnn2c(N2CCN(C(=O)c3cccc(F)c3)CC2)c1Cc1ccccc1 | inconclusive: 13.6% | 
COCCN(Cc1ccccc1)C(=S)Nc1ccc(OC(F)F)cc1 | inconclusive: 13.5% | 
c1ccc2c(c1)oc1c(Nc3ccc(CN4CCOCC4)cc3)ncnc12 |  | inconclusive: 2.59 µM [activator, full curve]
CCC(C(=O)OCC(=O)N(C)c1c(N)n(Cc2ccccc2)c(=O)[nH]c1=O)c1ccccc1 (stereo not drawn) | inconclusive | 
CCOC(=O)C1(Cc2cccc(Cl)c2)CCCN(C(=O)c2cccc(C)n2)C1 (stereo not drawn) | inconclusive: 15.1% | 
COc1cc(C2NC(=O)NC(C)=C2C(C)=O)cc(OC)c1OC (stereo not drawn) | inactive: 11.4% | 
Cc1ccc2nc(N(CCCN(C)C)C(=O)c3ccc(S(=O)(=O)N4CCCCCC4)cc3)sc2c1 | inconclusive: 10.7% | 
Cc1cc(NC(=O)COC(=O)C2COc3ccccc3O2)no1 (stereo not drawn) | inconclusive: 14.2% | 
O=C(Nc1ccccc1)c1ccccc1NC(=O)[C@H]1CCCC[C@H]1C(=O)O |  | inconclusive: 16.4 µM [activator, single point]
CC1CCCN(CC(=O)Nc2cc(S(=O)(=O)N3CCOCC3)ccc2N2CCCC2)C1 (stereo not drawn) |  | inconclusive: 29.1 µM [falling, partial curve, poor fit]
O=C(c1cccc(S(=O)(=O)N2CCOCC2)c1)N1CCOCC1 | inconclusive: -16.2% | 
CCn1c(C)nnc1SCC(=O)Nc1ccc(N2CCOCC2)cc1 |  | inconclusive: 29.1 µM [activator, single point]
CCC(NS(=O)(=O)c1cn(C)nc1C)c1ccccc1 (stereo not drawn) | inconclusive: 20.7% | 
O=c1c(/C=C(\O)c2ccc(F)cc2)nc2ccccc2n1-c1ccccc1 |  | inconclusive: 23.1 µM [rising, partial curve]
CCn1c(=O)c2c3c(sc2n2cnnc12)CCC3 |  | inconclusive: 18.4 µM [activator, partial curve]
COc1ccc(N2CCN(C(=O)CS(=O)Cc3nc(-c4ccc(OC)c(OC)c4)oc3C)CC2)cc1 (stereo not drawn) | inconclusive: 256% | 
Cc1ccccc1-c1noc(CCC(=O)NCCc2ccccc2)n1 |  | inconclusive: 29.1 µM [rising, single point]
Cn1c(CNC(=O)Cc2ccc3c(c2)OCO3)nnc1SCc1ccccc1 | inconclusive: -4.37% | 
O=C(Nc1ccc2c(c1)OCCO2)N1CCOCC1 | inconclusive: 15.9% | 
CCOC(=O)N1CCN(C(=O)/C=C/c2ccc3c(c2)OCO3)CC1 | inconclusive: 26% | 
COc1ccc(NC(=O)C2CC(=O)N(c3cccc(C)c3C)C2)cc1 (stereo not drawn) | inconclusive: 18.8% | 
Fc1cccc2sc(Nc3nc4c(F)cccc4s3)nc12 | inconclusive: 60.7% | 
COc1c(Cl)cc(Cl)cc1C(=O)Nc1ccc(C(=O)O)cc1 | inconclusive: 0.971% | 
O=C(Nc1nc2ccccc2c2nc3ccccc3n12)c1ccc(F)cc1 | inconclusive: 19.8% | 
O=C(CCN(NC(=O)c1ccccc1)C1=NS(=O)(=O)c2ccccc21)NC1CCCCC1 | inconclusive: 7.9% | 
CCOC(=O)C1CCN(c2c(NCc3ccc(C(=O)NC4CCCC4)cc3)c(=O)c2=O)CC1 | inconclusive: -0.998% | 

Quoted at random: three entries already listed, in no set order.
Compound | lipid storage change, negative = inhibition | Potency
O=C(Nc1ccccc1)c1ccccc1NC(=O)[C@H]1CCCC[C@H]1C(=O)O |  | inconclusive: 16.4 µM [activator, single point]
COc1ccc(N2CCN(C(=O)CS(=O)Cc3nc(-c4ccc(OC)c(OC)c4)oc3C)CC2)cc1 (stereo not drawn) | inconclusive: 256% | 
COc1cc(C2NC(=O)NC(C)=C2C(C)=O)cc(OC)c1OC (stereo not drawn) | inactive: 11.4% | 

The results go on:

Compound | lipid storage change, negative = inhibition | Potency
COc1ccccc1NC(=O)Oc1cccc(OC(=O)c2ccccc2)c1 | inconclusive: 16% | 
O=C(NCC(=O)N1CCCCCCC1)c1ccccc1Cl | inconclusive: 101% | 
N#Cc1c(N)nc2c(c1N)CC(CO)O2 (stereo not drawn) |  | inconclusive: 25.9 µM [rising, partial curve, poor fit]
O=C(CCc1nc(-c2cccs2)no1)Nc1cnc2ccccc2c1 | inconclusive: 2.12% | 
COc1ccccc1NC(=O)CN1C(=O)NC(CC(C)C)C1=O (stereo not drawn) | inconclusive: 6% | 
CC(C)c1ccc(NC2CCCN(C(=O)CCN3Cc4ccccc4C3=O)C2)cc1 (stereo not drawn) |  | inconclusive: 29.1 µM [activator, single point]
CN(c1ccc(-c2csc(NC(=O)C3CC(=O)N(Cc4ccco4)C3)n2)cc1)S(C)(=O)=O (stereo not drawn) |  | inconclusive: 7.31 µM [falling, partial curve, poor fit]
CS(=O)(=O)N(CC(=O)NCc1ccco1)c1ccc(OCc2ccccc2)cc1 | inconclusive: 9.22% | 
COc1ccc(C(=O)NC(C(=O)NCc2ccccn2)C(C)C)cc1 (stereo not drawn) | inconclusive: 7.88% | 
CCOC(=O)c1cnc(-n2cc(C)cn2)nc1Nc1ccccc1OC | inconclusive: -4.2% | 
COc1ncnc2c1NC1=C(S2)C(=NCCC(=O)O)CC(C)(C)C1 | inconclusive: -15% | 
Cn1c(NN)nc2sc3c(c2c1=O)CC(C)(C)OC3 | inconclusive: -8.71% | 
CS(=O)(=O)c1ccc2nc(N)sc2c1 | inconclusive: 2.08% | 
O=C(Nc1cccc(F)c1)NC1(C(=O)NCC2CCCO2)CCCCC1 (stereo not drawn) | inconclusive: 13% | 
CC(OC(=O)CCN=C1NS(=O)(=O)c2ccccc21)C(=O)Nc1ccc(F)cc1 (stereo not drawn) | inconclusive: 65.8% [at 0.0737 µM] | 
O=C(Cc1cccc2ccccc12)NCCOc1ccccc1F | inconclusive: -27.7% | 
Cn1cnc2c1c(=O)[nH]c(=O)n2Cc1ccccc1 |  | inconclusive: 6.51 µM [activator, single point]
Cc1ccc(NC(=S)N2CCCC2)cc1 | inconclusive: -50.2% | 
CCc1nc2ccc(C(=O)NCCc3ccccc3OC)cc2nc1CC | inconclusive: -81.6% | 
COc1ccc(C2=Nn3c(nnc3-c3cccnc3)SC2)cc1OC | inconclusive: 51.9% | 
Cc1cc(=O)c(C(=O)O)cn1Nc1ccc(Cl)cc1 | inconclusive: -30.6% | 
Cc1cccn2c(=O)c3cc(C(=O)NCC4CCCO4)c(=N)n(CCN4CCOCC4)c3nc12 (stereo not drawn) |  | inconclusive: 1.46 µM [activator, partial curve]
O=C(N/N=C/c1cccc2ccccc12)c1ccncc1 | inactive: 1.15% | 
CN(CCOc1ccccc1)C(=O)CCc1c[nH]c2ccccc12 | inconclusive: -44.7% | 
CC(C)(C)Cc1nnc(NC(=O)CSc2ccccc2)s1 | inconclusive: -10.7% | 
COc1ccc(CNC(=O)CSc2nnnn2Cc2ccccc2)cc1 |  | inconclusive: 0.13 µM [cytotoxic, single point]
